Results are given in words; binding and its absence hold for the method and conditions named. For some assays here: Binding seen in cells or lysates may run through a third protein. Some entries that bind do so weakly or less than the wild type. For some assays here: Where a sequence is shown, tags or fusion partners need not be part of it.
How the values were obtained:
[1] = biological target: T1, endogenous STAT1 of HEK-293T cells treated with IFN-β (human (endogenous in HEK-293T)), P42224; test: native gel or EMSA; HEK-293T transfected with empty vector or Flag-3D, treated with IFN-β (1,000 U/mL) or solvent for 30 min; lysates on native PAGE and SDS-PAGE, blotted; details: remark: other sources report otherwise
T1 chain: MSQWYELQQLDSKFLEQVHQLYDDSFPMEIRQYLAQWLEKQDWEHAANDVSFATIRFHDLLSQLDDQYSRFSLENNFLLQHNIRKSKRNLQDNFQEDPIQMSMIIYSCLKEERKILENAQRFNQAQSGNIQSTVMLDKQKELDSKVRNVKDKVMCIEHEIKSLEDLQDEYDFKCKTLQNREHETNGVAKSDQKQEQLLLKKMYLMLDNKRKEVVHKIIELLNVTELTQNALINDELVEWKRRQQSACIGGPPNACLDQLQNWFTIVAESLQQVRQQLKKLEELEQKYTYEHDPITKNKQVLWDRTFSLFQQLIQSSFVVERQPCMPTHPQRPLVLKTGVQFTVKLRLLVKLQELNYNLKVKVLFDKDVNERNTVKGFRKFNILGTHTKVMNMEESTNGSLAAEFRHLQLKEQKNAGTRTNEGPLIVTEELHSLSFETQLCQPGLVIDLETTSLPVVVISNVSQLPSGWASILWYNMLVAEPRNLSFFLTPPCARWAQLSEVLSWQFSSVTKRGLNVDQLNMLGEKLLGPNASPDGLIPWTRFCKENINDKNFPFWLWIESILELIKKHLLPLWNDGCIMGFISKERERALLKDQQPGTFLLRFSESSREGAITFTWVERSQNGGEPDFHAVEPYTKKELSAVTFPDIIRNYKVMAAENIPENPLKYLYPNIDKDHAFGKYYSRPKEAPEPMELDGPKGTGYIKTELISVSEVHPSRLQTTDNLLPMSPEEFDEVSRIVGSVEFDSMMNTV

By UniProt entry, the sequences of proteins in these tests, tags left out.
UniProt P23458: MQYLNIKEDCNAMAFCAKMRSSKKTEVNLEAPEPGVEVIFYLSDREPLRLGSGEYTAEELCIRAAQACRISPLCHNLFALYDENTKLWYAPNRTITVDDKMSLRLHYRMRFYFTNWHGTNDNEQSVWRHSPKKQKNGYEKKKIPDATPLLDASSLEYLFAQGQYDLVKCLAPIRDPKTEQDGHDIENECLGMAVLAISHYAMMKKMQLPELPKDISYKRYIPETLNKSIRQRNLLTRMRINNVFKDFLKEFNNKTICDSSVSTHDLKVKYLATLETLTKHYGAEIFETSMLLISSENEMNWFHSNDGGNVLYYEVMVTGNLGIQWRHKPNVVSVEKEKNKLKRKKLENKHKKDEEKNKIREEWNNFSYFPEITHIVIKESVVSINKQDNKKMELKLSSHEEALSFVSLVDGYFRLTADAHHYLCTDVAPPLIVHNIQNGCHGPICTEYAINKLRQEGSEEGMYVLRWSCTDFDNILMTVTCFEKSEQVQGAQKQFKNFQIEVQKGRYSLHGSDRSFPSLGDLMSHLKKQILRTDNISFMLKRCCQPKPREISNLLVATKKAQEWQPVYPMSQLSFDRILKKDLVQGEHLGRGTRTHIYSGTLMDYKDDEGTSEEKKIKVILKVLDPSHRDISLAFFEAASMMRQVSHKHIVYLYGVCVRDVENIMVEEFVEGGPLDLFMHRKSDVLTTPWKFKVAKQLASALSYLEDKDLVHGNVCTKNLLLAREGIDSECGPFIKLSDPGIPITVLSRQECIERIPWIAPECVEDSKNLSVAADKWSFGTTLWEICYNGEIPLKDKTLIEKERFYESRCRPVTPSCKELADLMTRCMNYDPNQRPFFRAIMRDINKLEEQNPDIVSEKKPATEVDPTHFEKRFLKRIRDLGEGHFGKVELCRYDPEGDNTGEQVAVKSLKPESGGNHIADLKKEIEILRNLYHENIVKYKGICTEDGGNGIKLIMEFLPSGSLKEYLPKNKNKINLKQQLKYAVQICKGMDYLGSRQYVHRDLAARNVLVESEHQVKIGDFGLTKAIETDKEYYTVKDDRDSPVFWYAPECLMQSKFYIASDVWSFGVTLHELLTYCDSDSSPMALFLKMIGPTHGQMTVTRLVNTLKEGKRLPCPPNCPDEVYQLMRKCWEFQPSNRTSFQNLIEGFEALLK

Myc-tagged JAK1 (human) = Myc-tagged JAK1 (human) (UniProt P23458); test: co-IP

B1: endogenous STAT1 of HEK-293T cells treated with IFN-β, P42224 1-750 (protein)
chain: MSQWYELQQLDSKFLEQVHQLYDDSFPMEIRQYLAQWLEKQDWEHAANDVSFATIRFHDLLSQLDDQYSRFSLENNFLLQHNIRKSKRNLQDNFQEDPIQMSMIIYSCLKEERKILENAQRFNQAQSGNIQSTVMLDKQKELDSKVRNVKDKVMCIEHEIKSLEDLQDEYDFKCKTLQNREHETNGVAKSDQKQEQLLLKKMYLMLDNKRKEVVHKIIELLNVTELTQNALINDELVEWKRRQQSACIGGPPNACLDQLQNWFTIVAESLQQVRQQLKKLEELEQKYTYEHDPITKNKQVLWDRTFSLFQQLIQSSFVVERQPCMPTHPQRPLVLKTGVQFTVKLRLLVKLQELNYNLKVKVLFDKDVNERNTVKGFRKFNILGTHTKVMNMEESTNGSLAAEFRHLQLKEQKNAGTRTNEGPLIVTEELHSLSFETQLCQPGLVIDLETTSLPVVVISNVSQLPSGWASILWYNMLVAEPRNLSFFLTPPCARWAQLSEVLSWQFSSVTKRGLNVDQLNMLGEKLLGPNASPDGLIPWTRFCKENINDKNFPFWLWIESILELIKKHLLPLWNDGCIMGFISKERERALLKDQQPGTFLLRFSESSREGAITFTWVERSQNGGEPDFHAVEPYTKKELSAVTFPDIIRNYKVMAAENIPENPLKYLYPNIDKDHAFGKYYSRPKEAPEPMELDGPKGTGYIKTELISVSEVHPSRLQTTDNLLPMSPEEFDEVSRIVGSVEFDSMMNTV
modifications: here or on the partner: phosphorylated after IFN-β (site not given); phosphorylated after IFN-β (site not given)
binding [1]: binds

B2: HA-tagged RNF125 (protein, UniProt Q96EQ8 1-232)
chain: MGSVLSTDSGKSAPASATARALERRRDPELPVTSFDCAVCLEVLHQPVRTRCGHVFCRSCIATSLKNNKWTCPYCRAYLPSEGVPATDVAKRMKSEYKNCAECDTLVCLSEMRAHIRTCQKYIDKYGPLQELEETAARCVCPFCQRELYEDSLLDHCITHHRSERRPVFCPLCRLIPDENPSSFSGSLIRHLQVSHTLFYDDFIDFNIIEEALIRRVLDRSLLEYVNHSNTT
binding (Myc-tagged JAK1 (human)): binds
